Earlier results, collected in patent US20220273628A1, “EFFECTS OF LYSERGIC ACID DIETHYLAMIDE (LSD) AND OF LSD ANALOGS TO ASSIST PSY[…] G[…] DISORDER OR OTHER ANXIETY NOT RELATED TO LIFE-T[…]” (Universitätsspital Basel, priority 2021, published 2022).
Read-outs that look alike come from different tables or passages of the source. At least one compound was matched to its structure with a doubt left.

Protein sequences, listed by entry. Tags and fused reporters are not part of them.
UniProt P28223, whole entry: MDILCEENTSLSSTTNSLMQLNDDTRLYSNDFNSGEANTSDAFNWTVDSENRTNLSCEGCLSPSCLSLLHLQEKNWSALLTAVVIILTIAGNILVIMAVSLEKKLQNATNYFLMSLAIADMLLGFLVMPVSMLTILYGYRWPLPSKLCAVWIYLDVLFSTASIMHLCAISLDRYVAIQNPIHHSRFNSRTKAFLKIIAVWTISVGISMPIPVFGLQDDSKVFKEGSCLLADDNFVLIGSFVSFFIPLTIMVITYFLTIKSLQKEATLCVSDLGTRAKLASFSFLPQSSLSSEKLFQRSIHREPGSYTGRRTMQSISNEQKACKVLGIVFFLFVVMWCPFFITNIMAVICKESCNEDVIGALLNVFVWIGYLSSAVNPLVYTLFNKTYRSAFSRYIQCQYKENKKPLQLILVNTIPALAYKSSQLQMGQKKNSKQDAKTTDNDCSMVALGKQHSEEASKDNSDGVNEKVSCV

Tests used:
5-HT2A receptor = 5-HT2A receptor (Homo sapiens, UniProt P28223); conditions: cited from earlier work
[1] = system: patients with life-threatening cancer with depression and anxiety; conditions: cited from earlier work
[2] = system: patients with life-threatening cancer; conditions: single dose 0.3 mg/kg vs niacin; cited from earlier work
[3] = system: patients with treatment-resistant depression; conditions: cited from earlier work
[4] = system: patients with advanced-stage cancer and anxiety; conditions: cited from earlier work
[5] = system: patients with major depression; conditions: cited from earlier work; for mean (SD) HAMD score: immediate treatment group; for effect size, Cohen d: P<0.001

In the case of `CN(C)CCc1c[nH]c2cccc(OP(=O)(O)O)c12` [psilocybin], the “activity at the 5-HT2A receptor” value (5-HT2A receptor) is given as “agonists”, the “participants continuing to show clinically significant decreases in depressed mood and anxiety” value ([1]; 6-month follow-up) is given as “about 80%” and the “depressed mood and anxiety” value ([1]; high dose 22 or 30 mg/70 kg) is given as “large decreases”. For the same compound, the “participants endorsing moderately or greater increased well-being/life satisfaction” value ([1]; high-dose experience) was greater than 80%, the anxiety and depression [2] was “improvements” and the “depressive symptoms relative to baseline” value ([3]; 1 week after high-dose treatment, p=0.002) was “markedly reduced”. The “depressive symptoms relative to baseline” value ([3]; 3 months after high-dose treatment, p=0.003) was “markedly reduced”, the mood ([4]; day 1 and 2 weeks after drug administration) was “trend effect” and the anxiety ([4]; moderate doses, vs niacin placebo) was “no significant improvement”. For the same compound, the “mean (SD) HAMD score” value ([5]; week 1 after session 2, 20 and 30 mg/70 kg) was 8.0 [7.1], the “mean (SD) HAMD score” value ([5]; week 4 after session 2) was 8.5 [5.7] and the “effect size, Cohen d” value ([5]; week 5, 95% CI 1.4-3.0) was 2.2. For the same compound, the “effect size, Cohen d” value ([5]; week 8, 95% CI 1.7-3.6) was 2.6.
